144 sequences from the supplement of paper PMC3334620 can be followed below.

The full ranking holds about 33,000 sequences; the median of “E-score (-0.5 to 0.5)” is about -0.0059, and the highest 2% start at about 0.26. Some of the results follow.

The target in this test is T1, Cin5 (UniProt P40917).
T1 sequence: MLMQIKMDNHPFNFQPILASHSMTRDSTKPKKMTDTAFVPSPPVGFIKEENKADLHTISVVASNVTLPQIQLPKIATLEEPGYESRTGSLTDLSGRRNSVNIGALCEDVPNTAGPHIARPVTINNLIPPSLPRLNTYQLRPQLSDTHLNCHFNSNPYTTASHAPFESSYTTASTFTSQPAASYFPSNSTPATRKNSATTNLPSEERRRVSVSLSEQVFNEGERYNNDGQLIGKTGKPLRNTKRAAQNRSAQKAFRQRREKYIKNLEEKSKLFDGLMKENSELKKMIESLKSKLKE
Briefly: PBM E-score (8-mer binding enrichment) (E-score (-0.5 to 0.5)); higher = stronger / more preferred TF binding. The settings on record: protein concentration: 100 nM; construct: GST-full length. In outline: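 E-scores (a modified Wilcoxon-Mann-Whitney statistic) were assigned by the Universal PBM Analysis Suite to every ungapped eight-base word pooled with its reverse complement. The input came from universal all-10-mer Agilent arrays made double-stranded by primer extension and probed with GST-tagged yeast transcription factors at about 100-200 nM. Fluorescent anti-GST detected bound protein, and masliner normalised the scans.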
As to ACTTAACA, the “PBM E-score” value was determined as 0.0535. For the sequence CGCTACAC, the “PBM E-score” value is -0.139. As for CGCCGCGC, the “PBM E-score” value is -0.137. On to CAGAAGCC, for which the “PBM E-score” value was -0.164.

Turning to TATCGCAA, the “PBM E-score” value is 0.175. As for GAGTGAAC, the figure is 0.0563.

Regarding AATGTGTA, the “PBM E-score” value came out at 0.0514.

As to GGAGACAC, the “PBM E-score” value is -0.0483. Turning to CACTATAC, the “PBM E-score” value is 0.0145. Turning to AGGGACGG, the “PBM E-score” value is -0.304. For AAAGCTAC, the “PBM E-score” value is -0.0407. In the case of CACCAACG, the “PBM E-score” value was -0.0803. Consider CTCCTCTA, for which the “PBM E-score” value was -0.279.

On to TCGTCTCA, for which the “PBM E-score” value was determined as 0.0753.

For CAGCAAAA, the “PBM E-score” value was found to be 0.123. With CCCCCGCG, the “PBM E-score” value is -0.189. As for GCATTCGA, the figure is 0.0901; as for CTCTTACC, 0.156; as for AGCAGCCT, -0.148. For AAATTTCG, the “PBM E-score” value came to 0.0333. CCGTAAAA: the “PBM E-score” value came to 0.002.

As to GGGTAAAA, the “PBM E-score” value was found to be 0.12. As for GACGGAAA, the figure is 0.234; as for CTTGCCCA, -0.12; as for AGTCAGTG, 0.0643.

Turning to AGGAAACC, the “PBM E-score” value was -0.035. For the sequence ACACGGGG, the “PBM E-score” value was -0.144.

Consider AATGAGAG, for which the “PBM E-score” value was -0.00716. Take AACACTGT: the “PBM E-score” value is -0.0444.

With ATTGGCCC, the “PBM E-score” value is -0.293. Consider CCGCGGAC, for which the “PBM E-score” value worked out at 0.104.

Regarding CACCAGCG, the “PBM E-score” value is -0.0689. AACTTAAA: the “PBM E-score” value is -0.00071. Regarding ATACTACA, the “PBM E-score” value amounted to 0.285. Consider AACGTTTC, for which the “PBM E-score” value was -0.0321. The figure for CAGTAAAG is 0.0392; for CGCAGAAA it is 0.0572. With GGTAGTGA, the “PBM E-score” value was -0.056. As for GGACGACA, the “PBM E-score” value turned out to be 0.172. As for ATCCAAAA, the “PBM E-score” value worked out at 0.0376. In the case of GCTTCAGA, the “PBM E-score” value was -0.114.

Consider CTCATGAG, for which the “PBM E-score” value was determined as 0.012. Take GAACTAGC: the “PBM E-score” value is -0.0823. Regarding CCATAAGA, the “PBM E-score” value was found to be 0.118. With AGCGGGGC, the “PBM E-score” value is -0.161. As for AGCGAATG, the figure is -0.0883. Regarding ACCATACG, the “PBM E-score” value was found to be 0.1. The figure for AAGGCCTG is -0.231; for GGTTTACA it is 0.0584; for AGTAACGC it is -0.155.

Take AAACATGC: the “PBM E-score” value was determined as 0.0556. For ATTAGCTG, the “PBM E-score” value stood at 0.0626. Regarding AAAGTTTA, the “PBM E-score” value amounted to 0.0887. As for TAATTACA, the “PBM E-score” value turned out to be 0.259.

CGGGCGCA: the “PBM E-score” value is -0.113. Turning to GATGAAAC, the “PBM E-score” value is 0.107. As for CTGAAATA, the figure is 0.143; as for AACCTTCC, -0.0147. Regarding CAGAAACG, the “PBM E-score” value was found to be 0.157. As for GCGTCACC, the figure is -0.292; as for ATCGAAAA, 0.0865; as for CCGATGTA, -0.0591. As for CTTCTACC, the “PBM E-score” value is -0.186. ATAGCCAC: the “PBM E-score” value is -0.0146. In the case of ACATAGGC, the “PBM E-score” value was found to be 0.0747. As for AGACCGTC, the figure is -0.25.

As to CCTCCGCG, the “PBM E-score” value was 0.0153.

On to TATAGAAA, for which the “PBM E-score” value was 0.0629. Consider AAAGTACC, for which the “PBM E-score” value was found to be 0.131. AATATCAG: the “PBM E-score” value amounted to 0.171. The figure for ACTATAGT is 0.174; for GTTCGCAA it is 0.157. Turning to CTGCGGCC, the “PBM E-score” value was -0.149. CTGCGGGC: the “PBM E-score” value was -0.0788.

Regarding GGCCCCCC, the “PBM E-score” value is -0.441.

With GAAATAGA, the “PBM E-score” value turned out to be 0.181. The figure for GTCTCGCA is -0.191.

For GAAGTACC, the “PBM E-score” value is 0.0459. For CAGTCGTA, the “PBM E-score” value is -0.174.

With AATCGGGT, the “PBM E-score” value was found to be 0.241.

For ACAACACC, the “PBM E-score” value is 0.084. On to CTTAAAAC, for which the “PBM E-score” value was 0.0781.

Regarding CGCCGGCG, the “PBM E-score” value stood at 0.235. As for CGCTAGAC, the figure is -0.281; as for CATTAAAG, 0.155. For the sequence TGCGAACA, the “PBM E-score” value was determined as 0.101. As for ATCGCTAG, the “PBM E-score” value is -0.0029. For GGGGAAGA, the “PBM E-score” value is -0.179.

For AAAATGAG, the “PBM E-score” value is 0.11. With CACTGTGC, the “PBM E-score” value is -0.0303. For CACAGGGG, the “PBM E-score” value was -0.237. As for AATGACGG, the “PBM E-score” value was found to be 0.157.

As to CCTGTCGA, the “PBM E-score” value was -0.135. Take CTGGTAAC: the “PBM E-score” value was -0.0333. The figure for ACCATCCC is 0.0299. For the sequence ACTCCAAA, the “PBM E-score” value turned out to be 0.0287. As for CTTCCCTA, the figure is -0.16. Turning to AGTTGCCA, the “PBM E-score” value is -0.108. Take ACCACACC: the “PBM E-score” value was -0.15. As for CTGCTAAC, the figure is -0.0283; as for AAGGAGGT, -0.26. With GGGACCCC, the “PBM E-score” value is -0.26.

Take AGCCGCTG: the “PBM E-score” value is -0.188. As for ACCCGTGA, the figure is -0.165; as for CACCTTCA, -0.0454; as for CAAGTACC, -0.1. Regarding ACGGAGTG, the “PBM E-score” value turned out to be 0.118.

Regarding AGCGCCAT, the “PBM E-score” value is -0.22. Take AACTCTAG: the “PBM E-score” value amounted to 0.0483. The figure for AGATCCCT is -0.0979.

As to AGGTCGGC, the “PBM E-score” value is -0.21.

As for CTCCTCGC, the “PBM E-score” value was -0.222.

As to AGCCGCTC, the “PBM E-score” value is -0.0337.

On to ATATGCGG, for which the “PBM E-score” value came out at 0.148. The figure for AAACTCGT is 0.105; for CCCTTCAA it is -0.141. As for ACTCGAGC, the “PBM E-score” value amounted to 0.0394. TAGGAGAA: the “PBM E-score” value is -0.171. The figure for AAATCGGT is -0.126.

For the sequence AGTATTTC, the “PBM E-score” value came to 0.178. Turning to TATGTGGA, the “PBM E-score” value is 0.194. The figure for ATGACCGG is -0.144; for GATTCTCC it is -0.134; for CCCCTGAC it is -0.0686. With GTGGATTA, the “PBM E-score” value was 0.212. For the sequence AGCAGGAC, the “PBM E-score” value was -0.0639.

As to CACTCAGA, the “PBM E-score” value is 0.129. As for AACGATCA, the figure is -0.0455. AAACTGAG: the “PBM E-score” value was -0.105. On to CAGTTAGC, for which the “PBM E-score” value was -0.17. As for GTGGCCGA, the “PBM E-score” value is 0.00156. For the sequence ACTAGGAT, the “PBM E-score” value is -0.0757. On to CCCGTACC, for which the “PBM E-score” value was -0.125.

With AATCTGGG, the “PBM E-score” value is -0.0792. For the sequence ATAAGCGG, the “PBM E-score” value came out at 0.206. Consider GCACCCAC, for which the “PBM E-score” value was determined as 0.145. As for AAGGGGAA, the figure is -0.208; as for AGCTAGGA, -0.047. With AACAGACT, the “PBM E-score” value amounted to 0.138. Regarding CAGTGGTA, the “PBM E-score” value was -0.0983. As for CCCCGAAC, the “PBM E-score” value was -0.091. Take AGTAGAAG: the “PBM E-score” value stood at 0.0295. For the sequence AAGACAGT, the “PBM E-score” value is 0.0215. ACAGGGGC: the “PBM E-score” value was -0.138.
